Data: patent publication US12356990B2, “Pyridazinol compound, derivative thereof, preparation method therefor, herbicidal composition and use thereof” (QINGDAO KINGAGROOT CHEMICAL COMPOUND CO., LTD., priority 2019, dated 2025)
The name of at least one read-out is uncertain.

Columns and labels:
Assay in all cases: Post-emergence weed control test (greenhouse, pot)
Assay type in all cases: in vivo
Details in all cases: 1200 g/ha, after 3 weeks, fresh weight inhibition rate
Descurainia sophia = test system: Descurainia sophia
Capsella bursa-pastoris = test system: Capsella bursa-pastoris
Sinapis arvensis = test system: Sinapis arvensis

Structure (SMILES): Oc1c(-c2ccc3c(c2)OC(F)(F)O3)nnc(C(F)(F)F)c1C1CC1 [Compound 410]
- weed control effect, Descurainia sophia (activity level) (Descurainia sophia): 5 (Level 5: growth control rate is above 85%)
- weed control effect, Capsella bursa-pastoris (activity level) (Capsella bursa-pastoris): 3 (Level 3: growth control rate is greater than or equal to 40% and less than 60%)
- weed control effect, Sinapis arvensis (activity level) (Sinapis arvensis): 5 (Level 5: growth control rate is above 85%)

Structure (SMILES): C=C(C)c1c(C(F)(F)F)nnc(-c2ccc(F)cc2Cl)c1O [Compound 401]
- weed control effect, Descurainia sophia (activity level) (Descurainia sophia): 5 (Level 5: growth control rate is above 85%)
- weed control effect, Capsella bursa-pastoris (activity level) (Capsella bursa-pastoris): 4 (Level 4: growth control rate is greater than or equal to 60% and less than 85%)
- weed control effect, Sinapis arvensis (activity level) (Sinapis arvensis): 5 (Level 5: growth control rate is above 85%)

Structure (SMILES): Oc1c(-c2cccnc2)nnc(C(F)(F)F)c1C1CC1 [Compound 119]
- weed control effect, Descurainia sophia (activity level) (Descurainia sophia): 5 (Level 5: growth control rate is above 85%)
- weed control effect, Capsella bursa-pastoris (activity level) (Capsella bursa-pastoris): 5 (Level 5: growth control rate is above 85%)
- weed control effect, Sinapis arvensis (activity level) (Sinapis arvensis): 5 (Level 5: growth control rate is above 85%)

Structure (SMILES): Oc1c(-c2ccccn2)nnc(C(F)(F)F)c1C1CC1 [Compound 118]
- weed control effect, Descurainia sophia (activity level) (Descurainia sophia): 5 (Level 5: growth control rate is above 85%)
- weed control effect, Capsella bursa-pastoris (activity level) (Capsella bursa-pastoris): 5 (Level 5: growth control rate is above 85%)
- weed control effect, Sinapis arvensis (activity level) (Sinapis arvensis): 5 (Level 5: growth control rate is above 85%)

Structure (SMILES): Oc1c(-c2ccc(Br)nc2)nnc(C(F)(F)F)c1C1CC1 [Compound 124]
- weed control effect, Descurainia sophia (activity level) (Descurainia sophia): 5 (Level 5: growth control rate is above 85%)
- weed control effect, Capsella bursa-pastoris (activity level) (Capsella bursa-pastoris): 5 (Level 5: growth control rate is above 85%)
- weed control effect, Sinapis arvensis (activity level) (Sinapis arvensis): 5 (Level 5: growth control rate is above 85%)

Structure (SMILES): Oc1c(-c2ccc(Cl)cc2)nnc(C(F)(F)F)c1C1CC1 [Compound 116]
- weed control effect, Descurainia sophia (activity level) (Descurainia sophia): 5 (Level 5: growth control rate is above 85%)
- weed control effect, Capsella bursa-pastoris (activity level) (Capsella bursa-pastoris): 5 (Level 5: growth control rate is above 85%)
- weed control effect, Sinapis arvensis (activity level) (Sinapis arvensis): 5 (Level 5: growth control rate is above 85%)

Structure (SMILES): Oc1c(-c2cc(Cl)cnc2F)nnc(C(F)(F)F)c1C1CC1 [Compound 137]
- weed control effect, Descurainia sophia (activity level) (Descurainia sophia): 5 (Level 5: growth control rate is above 85%)
- weed control effect, Capsella bursa-pastoris (activity level) (Capsella bursa-pastoris): 5 (Level 5: growth control rate is above 85%)
- weed control effect, Sinapis arvensis (activity level) (Sinapis arvensis): 5 (Level 5: growth control rate is above 85%)

Structure (SMILES): Cc1c(C(F)(F)F)nnc(-c2ccc(Br)cc2)c1O [Compound 89]
- weed control effect, Descurainia sophia (activity level) (Descurainia sophia): 5 (Level 5: growth control rate is above 85%)
- weed control effect, Capsella bursa-pastoris (activity level) (Capsella bursa-pastoris): 5 (Level 5: growth control rate is above 85%)
- weed control effect, Sinapis arvensis (activity level) (Sinapis arvensis): 5 (Level 5: growth control rate is above 85%)

Structure (SMILES): Cc1cc(C#N)ccc1-c1nnc(C(F)(F)F)c(C)c1O [Compound 399]
- weed control effect, Descurainia sophia (activity level) (Descurainia sophia): 5 (Level 5: growth control rate is above 85%)
- weed control effect, Capsella bursa-pastoris (activity level) (Capsella bursa-pastoris): 5 (Level 5: growth control rate is above 85%)
- weed control effect, Sinapis arvensis (activity level) (Sinapis arvensis): 5 (Level 5: growth control rate is above 85%)

Structure (SMILES): C=C(C)c1c(C(F)(F)F)nnc(-c2ccc(Cl)cc2)c1O [Compound 157]
- weed control effect, Descurainia sophia (activity level) (Descurainia sophia): 5 (Level 5: growth control rate is above 85%)
- weed control effect, Capsella bursa-pastoris (activity level) (Capsella bursa-pastoris): 5 (Level 5: growth control rate is above 85%)
- weed control effect, Sinapis arvensis (activity level) (Sinapis arvensis): 5 (Level 5: growth control rate is above 85%)

Structure (SMILES): Cc1c(C(F)(F)F)nnc(-c2ccc(F)cc2)c1O [Compound 87]
- weed control effect, Descurainia sophia (activity level) (Descurainia sophia): 5 (Level 5: growth control rate is above 85%)
- weed control effect, Capsella bursa-pastoris (activity level) (Capsella bursa-pastoris): 5 (Level 5: growth control rate is above 85%)
- weed control effect, Sinapis arvensis (activity level) (Sinapis arvensis): 5 (Level 5: growth control rate is above 85%)

Structure (SMILES): C=C(C)c1c(C(F)(F)F)nnc(-c2cccnc2)c1O [Compound 160]
- weed control effect, Descurainia sophia (activity level) (Descurainia sophia): 5 (Level 5: growth control rate is above 85%)
- weed control effect, Capsella bursa-pastoris (activity level) (Capsella bursa-pastoris): 5 (Level 5: growth control rate is above 85%)
- weed control effect, Sinapis arvensis (activity level) (Sinapis arvensis): 5 (Level 5: growth control rate is above 85%)

Structure (SMILES): Cc1c(C(F)(F)F)nnc(-c2cccnc2)c1O [Compound 92]
- weed control effect, Descurainia sophia (activity level) (Descurainia sophia): 5 (Level 5: growth control rate is above 85%)
- weed control effect, Capsella bursa-pastoris (activity level) (Capsella bursa-pastoris): 5 (Level 5: growth control rate is above 85%)
- weed control effect, Sinapis arvensis (activity level) (Sinapis arvensis): 5 (Level 5: growth control rate is above 85%)

Structure (SMILES): Cc1c(C(F)(F)F)nnc(-c2cnn(C(F)F)c2)c1O [Compound 48]
- weed control effect, Descurainia sophia (activity level) (Descurainia sophia): 5 (Level 5: growth control rate is above 85%)
- weed control effect, Capsella bursa-pastoris (activity level) (Capsella bursa-pastoris): 5 (Level 5: growth control rate is above 85%)
- weed control effect, Sinapis arvensis (activity level) (Sinapis arvensis): 5 (Level 5: growth control rate is above 85%)

Structure (SMILES): C=C(C)c1c(C(F)(F)F)nnc(-c2ccc(C#N)cc2)c1O [Compound 10]
- weed control effect, Descurainia sophia (activity level) (Descurainia sophia): 5 (Level 5: growth control rate is above 85%)
- weed control effect, Capsella bursa-pastoris (activity level) (Capsella bursa-pastoris): 5 (Level 5: growth control rate is above 85%)
- weed control effect, Sinapis arvensis (activity level) (Sinapis arvensis): 5 (Level 5: growth control rate is above 85%)

Structure (SMILES): C=C(C)c1c(C(F)(F)F)nnc(-c2cc(C)nn2C)c1O [Compound 168]
- weed control effect, Descurainia sophia (activity level) (Descurainia sophia): 5 (Level 5: growth control rate is above 85%)
- weed control effect, Capsella bursa-pastoris (activity level) (Capsella bursa-pastoris): 5 (Level 5: growth control rate is above 85%)
- weed control effect, Sinapis arvensis (activity level) (Sinapis arvensis): 5 (Level 5: growth control rate is above 85%)

Structure (SMILES): Cc1c(C(F)(F)F)nnc(-c2ccc(Cl)nc2)c1O [Compound 98]
- weed control effect, Descurainia sophia (activity level) (Descurainia sophia): 5 (Level 5: growth control rate is above 85%)
- weed control effect, Capsella bursa-pastoris (activity level) (Capsella bursa-pastoris): 5 (Level 5: growth control rate is above 85%)
- weed control effect, Sinapis arvensis (activity level) (Sinapis arvensis): 5 (Level 5: growth control rate is above 85%)

Structure (SMILES): C=C(C)c1c(C(F)(F)F)nnc(-c2cscn2)c1O [Compound 172]
- weed control effect, Descurainia sophia (activity level) (Descurainia sophia): 5 (Level 5: growth control rate is above 85%)
- weed control effect, Capsella bursa-pastoris (activity level) (Capsella bursa-pastoris): 5 (Level 5: growth control rate is above 85%)
- weed control effect, Sinapis arvensis (activity level) (Sinapis arvensis): 5 (Level 5: growth control rate is above 85%)

Structure (SMILES): Oc1c(-c2cnn(C(F)F)c2)nnc(C(F)(F)F)c1Br [Compound 46]
- weed control effect, Descurainia sophia (activity level) (Descurainia sophia): 5 (Level 5: growth control rate is above 85%)
- weed control effect, Capsella bursa-pastoris (activity level) (Capsella bursa-pastoris): 3 (Level 3: growth control rate is greater than or equal to 40% and less than 60%)
- weed control effect, Sinapis arvensis (activity level) (Sinapis arvensis): 5 (Level 5: growth control rate is above 85%)

Structure (SMILES): Cc1c(C(F)(F)F)nnc(-c2ccccn2)c1O [Compound 91]
- weed control effect, Descurainia sophia (activity level) (Descurainia sophia): 5 (Level 5: growth control rate is above 85%)
- weed control effect, Capsella bursa-pastoris (activity level) (Capsella bursa-pastoris): 5 (Level 5: growth control rate is above 85%)
- weed control effect, Sinapis arvensis (activity level) (Sinapis arvensis): 5 (Level 5: growth control rate is above 85%)

Structure (SMILES): Cc1c(C(F)(F)F)nnc(-c2ccc(F)c(F)c2)c1O [Compound 90]
- weed control effect, Descurainia sophia (activity level) (Descurainia sophia): 5 (Level 5: growth control rate is above 85%)
- weed control effect, Capsella bursa-pastoris (activity level) (Capsella bursa-pastoris): 5 (Level 5: growth control rate is above 85%)
- weed control effect, Sinapis arvensis (activity level) (Sinapis arvensis): 5 (Level 5: growth control rate is above 85%)

Structure (SMILES): Cc1c(C(F)(F)F)nnc(-c2ccc(Cl)cc2C(F)(F)F)c1O [Compound 313]
- weed control effect, Descurainia sophia (activity level) (Descurainia sophia): 5 (Level 5: growth control rate is above 85%)
- weed control effect, Capsella bursa-pastoris (activity level) (Capsella bursa-pastoris): 5 (Level 5: growth control rate is above 85%)
- weed control effect, Sinapis arvensis (activity level) (Sinapis arvensis): 5 (Level 5: growth control rate is above 85%)

Structure (SMILES): Cc1c(C(F)(F)F)nnc(-c2ccc(C#N)cc2)c1O [Compound 5]
- weed control effect, Descurainia sophia (activity level) (Descurainia sophia): 5 (Level 5: growth control rate is above 85%)
- weed control effect, Capsella bursa-pastoris (activity level) (Capsella bursa-pastoris): 5 (Level 5: growth control rate is above 85%)
- weed control effect, Sinapis arvensis (activity level) (Sinapis arvensis): 5 (Level 5: growth control rate is above 85%)

Structure (SMILES): C=Cc1c(C(F)(F)F)nnc(-c2ccc(C#N)cc2)c1O [Compound 9]
- weed control effect, Descurainia sophia (activity level) (Descurainia sophia): 5 (Level 5: growth control rate is above 85%)
- weed control effect, Capsella bursa-pastoris (activity level) (Capsella bursa-pastoris): 5 (Level 5: growth control rate is above 85%)
- weed control effect, Sinapis arvensis (activity level) (Sinapis arvensis): 5 (Level 5: growth control rate is above 85%)

Structure (SMILES): Cc1c(C(F)(F)F)nnc(-c2ccc(Cl)nc2F)c1O [Compound 113]
- weed control effect, Descurainia sophia (activity level) (Descurainia sophia): 5 (Level 5: growth control rate is above 85%)
- weed control effect, Capsella bursa-pastoris (activity level) (Capsella bursa-pastoris): 5 (Level 5: growth control rate is above 85%)
- weed control effect, Sinapis arvensis (activity level) (Sinapis arvensis): 5 (Level 5: growth control rate is above 85%)

Structure (SMILES): Cc1c(C(F)(F)F)nnc(-c2cncc(F)c2)c1O [Compound 95]
- weed control effect, Descurainia sophia (activity level) (Descurainia sophia): 5 (Level 5: growth control rate is above 85%)
- weed control effect, Capsella bursa-pastoris (activity level) (Capsella bursa-pastoris): 5 (Level 5: growth control rate is above 85%)
- weed control effect, Sinapis arvensis (activity level) (Sinapis arvensis): 5 (Level 5: growth control rate is above 85%)

Structure (SMILES): C=C(C)c1c(C(F)(F)F)nnc(-c2ccc(F)c(F)c2)c1O [Compound 158]
- weed control effect, Descurainia sophia (activity level) (Descurainia sophia): 5 (Level 5: growth control rate is above 85%)
- weed control effect, Capsella bursa-pastoris (activity level) (Capsella bursa-pastoris): 5 (Level 5: growth control rate is above 85%)
- weed control effect, Sinapis arvensis (activity level) (Sinapis arvensis): 5 (Level 5: growth control rate is above 85%)

Structure (SMILES): C=C(C)c1c(C(F)(F)F)nnc(-c2ccccn2)c1O [Compound 159]
- weed control effect, Descurainia sophia (activity level) (Descurainia sophia): 5 (Level 5: growth control rate is above 85%)
- weed control effect, Capsella bursa-pastoris (activity level) (Capsella bursa-pastoris): 5 (Level 5: growth control rate is above 85%)
- weed control effect, Sinapis arvensis (activity level) (Sinapis arvensis): 5 (Level 5: growth control rate is above 85%)

Structure (SMILES): COc1c(C(F)(F)F)nnc(-c2ccc(C#N)cc2)c1O [Compound 12]
- weed control effect, Descurainia sophia (activity level) (Descurainia sophia): 5 (Level 5: growth control rate is above 85%)
- weed control effect, Capsella bursa-pastoris (activity level) (Capsella bursa-pastoris): 4 (Level 4: growth control rate is greater than or equal to 60% and less than 85%)
- weed control effect, Sinapis arvensis (activity level) (Sinapis arvensis): 5 (Level 5: growth control rate is above 85%)

Structure (SMILES): C=C(C)c1c(C(F)(F)F)nnc(-c2cnc(C)s2)c1O [Compound 171]
- weed control effect, Descurainia sophia (activity level) (Descurainia sophia): 5 (Level 5: growth control rate is above 85%)
- weed control effect, Capsella bursa-pastoris (activity level) (Capsella bursa-pastoris): 5 (Level 5: growth control rate is above 85%)
- weed control effect, Sinapis arvensis (activity level) (Sinapis arvensis): 5 (Level 5: growth control rate is above 85%)
